# Reference: PubChem BioAssay AID652272 (Drosophila RNAi Screening Center, 2013)
# Test: 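Finding fly genes that regulate Hedgehog signal transduction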 (primary screen)
# Cells: Drosophila clone 8 (Cl8) cells
# Reagent: long dsRNA against Drosophila genes
# Read-out: 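Firefly light from a Hedgehog-responsive ptc promoter reporter and Renilla reference light, both read on a plate reader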
# Direction: firefly Hh reporter signal: higher = more ptc reporter light; Renilla reference signal: higher = more Renilla control light
# Call rule: 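Called a hit if the two-replicate mean z-score lies below -2 or above +3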
# Calls: active = hit: reporter lowered or raised; inactive = not a hit
# The screen tested about 21,000 reagents; shown is an unselected part of those with a known target gene and a result. Over the whole deposit, 503 (2.4%) were called active. 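Raw plate light values, not normalised; calls rest on replicate z-scores that were not deposited; hits include reporter decreases as well as increases.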 The numbers tell different reagents against one gene apart. A plus sign joins genes that one reagent is predicted to hit. Not stated in the record: the amount of reagent, the time to read-out.
Target gene,reagent,"firefly Hh reporter signal, replicate 1","firefly Hh reporter signal, replicate 2","firefly Hh reporter signal, replicate 3","Renilla reference signal, replicate 1","Renilla reference signal, replicate 2",Outcome
CG11159,1,97138,38359,,3292,3515,inactive
CG10481,1,74764,69993,,1877,5228,inactive
alpha-Est1,1,91203,89955,,3728,3720,inactive
TkR99D,1,1.31e5,1.60e5,,4498,4483,inactive
CG5966,1,98359,89708,,2396,1824,inactive
CG17652,1,1.73e5,1.24e5,,3912,2889,inactive
Rassf,1,95029,57680,,3473,2363,inactive
CG3529,1,87696,42161,,4211,2039,inactive
Atg6,1,90396,83947,,3795,3440,inactive
CG16727,1,8.44e5,1.62e5,,45017,4970,inactive
CG34460,1,58565,37731,,483,2259,inactive
alpha-Man-IIa,1,86194,85723,,2538,2230,inactive
CG11777,1,1.22e5,60867,,2857,5478,inactive
Mitofilin,1,91832,71082,,3804,2929,inactive
Eh,1,79616,97464,,2032,2789,inactive
CG6425,1,1.07e5,67560,,2613,1589,inactive
ATPsynD,1,5.31e5,69553,,25693,1639,inactive
CG5770,1,1.73e5,1.04e5,,6704,4342,inactive
step,1,82978,62192,,2144,4800,inactive
step,2,1.20e5,80096,,2672,7609,inactive
TMEM216 + CG11760,1,1.33e5,1.16e5,,5793,4533,inactive
Ddr,1,5.18e5,1.30e5,,27104,5936,inactive
Ddr,2,4.66e5,1.07e5,,25429,5720,inactive
Ddr,3,1.39e5,56484,,3058,5280,inactive
Ddr,4,1.69e5,5.11e5,70682,4672,30163,inactive
Ddr,5,1.91e5,78531,,5117,6738,inactive
CG34444,1,92362,53172,,1905,3264,inactive
Cyp308a1,1,77320,1.75e5,,1312,7194,inactive
H15,1,87954,54242,,1274,5156,inactive
CngB,1,1.77e5,1.14e5,,6284,4515,inactive
CG33255 (retired record) + hpRNA:CR32205 + CR42838,1,1.92e5,,,5195,,inactive
gom,1,97120,77104,,2451,6664,inactive
btz,1,1.23e5,90656,,2044,1805,inactive
su(r),1,70429,48721,,1804,1384,inactive
CG34168,1,1.46e5,1.06e5,,3552,8186,inactive
CG15615,1,47174,44245,,1120,3218,inactive
CRMP,1,1.45e5,,,4224,,inactive
CRMP,2,1.26e5,80331,,4101,2957,inactive
TwdlX,1,5.24e5,2.53e5,,29984,6160,inactive
CG30016,1,1.21e5,1.88e5,,3264,7900,inactive
mey,1,1.21e5,64982,,2744,2358,inactive
pain,1,91693,36096,,2208,3056,inactive
r-l,1,1.66e5,4.48e5,1.21e5,6468,2773,inactive
CG6310,1,38086,47517,78728,4573,5568,inactive
ZnT86D,1,87009,1.29e5,,2289,3389,inactive
mRpS2,1,1.48e5,1.31e5,,4061,7504,inactive
CG12017,1,92480,39764,,3491,3328,inactive
futsch,1,4.87e5,2.41e5,,24972,5045,inactive
futsch,2,68683,4.06e5,1.93e5,1545,4507,inactive
futsch,3,1.08e5,1.11e5,,1866,3808,inactive
futsch,4,62523,1.88e5,,1110,7819,inactive
CG14182,1,97578,93801,,3467,2727,inactive
CG3092,1,92336,49366,,4115,2237,inactive
CG4752,1,1.13e5,85504,,1222,7763,inactive
Aps,1,76456,86981,68693,5024,5623,inactive
CG14664,1,87501,1.13e5,,3491,3175,inactive
CG31560,1,69528,1.03e5,,2812,3200,inactive
TwdlJ,1,1.07e5,1.42e5,,2545,3019,inactive
Mal-A5,1,82363,59177,,3504,2219,inactive
ATPsyngamma,1,57345,61121,,2484,1498,inactive
Cpr97Eb,1,1.11e5,1.35e5,,3595,4698,inactive
Cdc2rk,1,81427,42544,,1892,3623,inactive
Dad,1,1.38e5,1.05e5,,6838,5008,inactive
CG42714,1,1.12e5,2.31e5,,2787,9131,inactive
CG18417,1,59260,60169,,7385,4342,inactive
aqz,1,81863,95002,,3820,3424,inactive
CG31681,1,5.74e5,2.96e5,,32793,12234,inactive
CG6415,1,60920,55159,,3196,2058,inactive
hkb,1,1.18e5,1.13e5,,4378,12066,inactive
CG14694,1,56709,98536,,1745,2937,inactive
ReepA,1,85146,65904,,3856,2572,inactive
CG33775,1,1.49e5,2.07e5,,3602,9571,inactive
Ddx1,1,1.13e5,73025,,4128,2940,inactive

Single entries from the entries so far.
Ddr #3, Renilla reference signal, replicate 1 → 3058
For “firefly Hh reporter signal, replicate 2”, H15 shows 54242
Entry for CG4752 in “Renilla reference signal, replicate 2”: 7763
Entry of r-l in “Outcome”: inactive
CG14182, Outcome = inactive
step #2, Outcome → inactive
